## Primary screen of a compound library

By UniProt entry, the sequences of proteins in these tests, tags left out.
UniProt E9BF75, entry or part of it: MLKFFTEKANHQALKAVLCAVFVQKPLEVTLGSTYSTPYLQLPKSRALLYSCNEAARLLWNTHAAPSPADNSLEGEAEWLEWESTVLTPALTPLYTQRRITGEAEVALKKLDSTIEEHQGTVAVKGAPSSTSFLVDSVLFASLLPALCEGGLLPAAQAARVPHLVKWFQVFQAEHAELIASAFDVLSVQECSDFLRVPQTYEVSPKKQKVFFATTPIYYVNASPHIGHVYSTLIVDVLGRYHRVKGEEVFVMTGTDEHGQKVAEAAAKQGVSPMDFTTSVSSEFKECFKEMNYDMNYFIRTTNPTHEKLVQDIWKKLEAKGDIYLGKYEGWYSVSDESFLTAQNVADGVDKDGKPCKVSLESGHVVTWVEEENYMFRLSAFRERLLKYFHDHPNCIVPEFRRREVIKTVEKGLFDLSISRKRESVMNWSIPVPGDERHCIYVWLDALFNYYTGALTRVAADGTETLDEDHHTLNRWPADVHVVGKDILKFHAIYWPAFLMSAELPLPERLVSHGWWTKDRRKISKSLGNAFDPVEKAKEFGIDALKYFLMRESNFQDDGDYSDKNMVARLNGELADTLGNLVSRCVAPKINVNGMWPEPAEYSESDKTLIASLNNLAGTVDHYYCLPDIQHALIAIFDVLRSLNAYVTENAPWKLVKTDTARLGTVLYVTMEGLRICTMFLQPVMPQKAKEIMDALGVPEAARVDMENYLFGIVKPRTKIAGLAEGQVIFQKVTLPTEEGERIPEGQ

Measurements from “University of Dundee, Small-Polar-MMV Screening Library” (2021), ChEMBL document CHEMBL3988442.

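Primary screen of methionyl-tRNA synthetase; the read-out is not stated. Target: Methionyl-tRNA synthetase (putative), Leishmania donovani (UniProt E9BF75). The test concentration is not given. The values are filed as inhibition. About 68,000 compounds were tested under these conditions; 0.035% (about 24) showed 50% or more at least once.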

All values are in %. How 0% and 100% were set is not recorded. Most values in the screen are low, and negative values occur. Compounds were drawn at random from those tested, without regard to their results.

SMILES | inhibition
CCN(C(C)=O)c1nc(CN2CCCCC2Cn2cncn2)cs1 (centres undefined) | 15.1%
O=C(CCc1nnc(-c2ccsc2)o1)NCC1CCN(C2CC2)C1 (centres undefined) | 5.307%
COCCN(C)C(=O)c1ccc(OC)cc1O | 18.5%
CC(C)CC(=O)N[C@H](C)c1c(-c2ccc(Cl)cc2)noc1C(=O)O | 12.09%
CCC(=O)N1CCN(c2cc(N(C)C)cnn2)CC1 | 7.914%
CCNc1ncc(C(=O)N2Cc3nc(C)[nH]c(=O)c3C2)cn1 | 14.71%
CCn1nc(C)c(CNC(=O)NCC(C)(O)c2ccsc2)c1C (centres undefined) | 8.424%
c1cc(CCn2ccc(NC3CCSCC3)n2)ccn1 | 8.242%
CN(Cc1ccccc1)CC(O)Cn1cnc2ccc(Br)cc2c1=O (centres undefined) | 19.2%
C=C(C)CN(CC)S(=O)(=O)c1cccc(F)c1C#N | 6.596%
CC(C)(C)c1nnc2n1C(C(=O)N1CCN(c3ncccn3)CC1)CC2 (centres undefined) | 9.714%
CCS(=O)(=O)CC(=O)Nc1cccc2c1CN(CC(C)C)C2 | 15.28%
Cc1oncc1C(=O)NCc1cc(=O)n2c(n1)CN(C)CCC2 | 10.73%
Cc1nc(CN2CCc3cc(C(=O)O)c(N(C)C)nc3CC2)cs1 | 15.62%
O=C(NCCc1nncn1C1CC1)C1(Cc2ccccc2)CCC1 | 6.283%
O=C(CCC1CCCCC1)NCc1nnc2ccccn12 | 6.516%
COC(=O)c1cccc(S(=O)(=O)NC(=O)COC2CCCC2)c1 | 12.82%
O=C(Cc1cccs1)NC1CCN(c2cccc(F)c2)CC1 | 12.32%
CN(CC(=O)NCC(=O)Nc1ccc(F)cc1)Cc1cccs1 | 6.192%
Cc1ccsc1CN(C)c1cc(N2CCCC2CO)ncn1 (centres undefined) | 6.977%
Cn1cc(C2SCC(=O)Nc3c2cnn3C(C)(C)C)cn1 (centres undefined) | 6.989%
CCc1cnc(CN(C)C2CCN(CCS(C)(=O)=O)C2)o1 (centres undefined) | 11.5%
CC(C)c1nnc(CN2CCCC2Cn2cncn2)o1 (centres undefined) | 7.692%
Cc1cc2c(=O)n3c(nc2s1)CCN(Cc1ccncc1)CC3 | 12.67%
CNC(=O)NC(=O)C(NCc1cccs1)c1ccccc1 (centres undefined) | 1.079%
O=C(CSCC1CC1)N1CCCC(c2nccn2Cc2cccnc2)C1 (centres undefined) | 12.06%
Cc1cc(C)n(CC2CCCCN2CC(=O)Nc2nccs2)n1 (centres undefined) | 6.643%
Cc1nnc(NCc2ccc(N3CCC(CO)CC3)cc2)c(C#N)c1C | 11.91%
COc1ccc(C)cc1NC(=O)c1c(C)cn(C)c1CC(=O)O | 5.077%
Cc1cccc2c(CCNC(=O)[C@H](N)c3ccccc3)c[nH]c12 | 14.29%
Cc1ccc(CN2CC[C@@H]3O[C@@H](C(=O)N4CCN(C)CC4)C[C@@H]32)cc1 | 2.747%
Cc1ccc(CN(Cc2nc3c(cnn3C)c(=O)[nH]2)C(C)C)s1 | 17.71%
Cc1[nH]c(-c2ccccc2)nc1C(=O)N1CCc2[nH]cnc2C1C(=O)O (centres undefined) | 11.73%
CCOc1ccnc(N2CCN(C(=O)c3ccncc3)CC2)n1 | 10.29%
O=C(Nc1cccc(N2CCN(CC3CC3)CC2)c1)C1CCOC1 (centres undefined) | 15.36%
CN1CCCN(c2nc(C3CCCC3)nc3c2cnn3C)CC1 | 13.98%
CNC(=O)c1nc(CC(=O)Nc2cccc(C(F)(F)F)c2)no1 | -16.25%
Cc1ccc(OCC(O)CN(C)CC(=O)NC(C)C)c(C)c1 (centres undefined) | 5.615%
Cc1cccc(CN2C[C@@H](NC(=O)C3CCC3)[C@H]3COC[C@H]32)n1 | 10.64%
COc1ccc(OCc2nc(C(=O)N3C[C@H](O)[C@@H](N(C)C)C3)co2)cc1 | 14.72%
COc1cc(CO)ccc1OCc1nc(C(C)C)no1 | 16.36%
Cc1nnc(NC(=O)C(C)n2ncc(Br)c2C)s1 (centres undefined) | 9.832%
CCOCC1CN(Cc2nccs2)Cc2nn(CC3CC3)cc21 (centres undefined) | 19.88%
CCSc1ccccc1C(=O)NCC1CCN(Cc2ccsc2)CC1 | 14.65%
CC(C)(C)OC(=O)N1CC(=O)N(CCc2ccccc2)CC(O)C1 (centres undefined) | 0.274%
O=C(Nc1ccc(F)cc1)N1C[C@H]2C[C@H](C(=O)N3CCOCC3)[C@@H](C1)O2 | 17.65%
CC(=O)N1CCN(Cc2nnc(C(C)(C)C)o2)CC1 | 13.41%
CCCc1ccc(C(=O)N2Cc3c(Cn4ccnc4)nn(C)c3C2)cc1 | 7.143%
CN(Cc1cc2cc(F)ccc2[nH]1)C(=O)C1CC(=O)N(C(C)(C)C)C1 (centres undefined) | 17.35%
Cc1cc2c(=O)n3c(nc2s1)CCN(Cc1cncn1C)CC3 | 7.812%
Cc1ccc(F)cc1S(=O)(=O)NCc1cccc(CS(C)(=O)=O)c1 | 13.77%
Cn1cc(CN2CCC[C@]3(C[C@@H](Oc4ncccc4F)CO3)C2)cn1 | 8.242%
Cc1c(CN2CCCC(O)C2)[nH]c2ccc(F)cc12 (centres undefined) | 9.574%

Some entries from above, unchanged:

| SMILES | inhibition |
|---|---|
| `CC(C)c1nnc(CN2CCCC2Cn2cncn2)o1` (centres undefined) | 7.692% |
| `O=C(CCC1CCCCC1)NCc1nnc2ccccn12` | 6.516% |
| `CCc1cnc(CN(C)C2CCN(CCS(C)(=O)=O)C2)o1` (centres undefined) | 11.5% |
| `CCn1nc(C)c(CNC(=O)NCC(C)(O)c2ccsc2)c1C` (centres undefined) | 8.424% |
| `Cc1nnc(NCc2ccc(N3CCC(CO)CC3)cc2)c(C#N)c1C` | 11.91% |